Reference: article PMC5799240
These are yes or no findings as the source states them, for the method shown. Some binding calls cover weakened binding; strength is not graded here. Where a sequence is shown, tags or fusion partners need not be part of it.

Target: TRiC subunit CCT6 (yeast (endogenous in BY4741 or BY4742)), P39079
Assay: cryo-EM structure; both-ring closed state: purified tagged TRiC incubated with 1 mM ATP, 5 mM MgCl2, 5 mM Al(NO3)3, 30 mM NaF for 1 h at 30 °C before freezing; subunit located by the extra density of its tag; both purified
Conditions: remark: other sources report otherwise

B1: TRiC subunit CCT3 with an internal Strep-CBP-6xHis tag (CCT3-CBP), P39077 1-534 (protein)
chain: MQAPVVFMNASQERTTGRQAQISNITAAKAVADVIRTCLGPKAMLKMLLDPMGGLVLTNDGHAILREIDVAHPAAKSMLELSRTQDEEVGDGTTTVIILAGEILAQCAPYLIEKNIHPVIIIQALKKALTDALEVIKQVSKPVDVENDAAMKKLIQASIGTKYVIHWSEKMCELALDAVKTVRKDLGQTVEGEPNFEIDIKRYVRVEKIPGGDVLDSRVLKGVLLNKDVVHPKMSRHIENPRVVLLDCPLEYKKGESQTNIEIEKEEDWNRILQIEEEQVQLMCEQILAVRPTLVITEKGVSDLAQHYLLKGGCSVLRRVKKSDNNRIARVTGATIVNRVEDLKESDVGTNCGLFKVEMIGDEYFSFLDNCKEPKACTIMLRGGSKDILNEIDRNLQDAMAVARNVMLSPSLSPGGGATEMAVSVKLAEKAKQLEGIQQWPYQAVADAMECIPRTLIQNAGGDPIRLLSQLRAKHAQGNFTTGIDGDKGKIVDMVSYGIWEPEVIKQQSVKTAIESACLLLRVDDIVSGVRKQE
  binding: binds
